PubChem BioAssay AID686938 – Drosophila RNAi Screening Center | 2013
Assay: 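Knock-downs reducing store-operated calcium influx in Drosophila cells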 (primary screen). Cell system: Drosophila S2R+ cells. Reagent: long dsRNA against Drosophila genes, about 0.25 µg dsRNA per well, roughly 10,000 cells. Duration: 5 days of knock-down before the calcium assay. Challenge: thapsigargin (SERCA pump blocker) to empty calcium stores; entry signal taken 4 min after adding it. Measured: 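Duplicate raw fluo-4 intensities per well from a plate reader, at rest and four minutes after thapsigargin emptied calcium stores; entry-to-rest ratio filled for only some wells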. Direction: calcium entry signal: higher = stronger calcium signal after store depletion; resting calcium signal: higher = higher resting calcium signal. Hit rule: 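Hit if the duplicate-averaged plate z-score for entry over resting signal is under −3; wells with weak total dye signal (Fmax z < −2) or more than 5 off-targets removed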. Meaning of the calls: active = strongly reduced calcium entry; inactive = no strong reduction.
The screen tested about 23,000 reagents; shown is an unselected part of those with a known target gene and a result. Over the whole deposit, 75 (0.33%) are marked active. 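Raw plate signals without normalisation; calls rest on plate z-scores that were not deposited; ratio present for only 364 wells.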 Names joined by + are all predicted targets of the reagent. The record does not give: the dose of the treatment.

| gene knocked down | dsRNA | calcium entry signal, replicate 1 (fluorescence units) | calcium entry signal, replicate 2 (fluorescence units) | resting calcium signal, replicate 1 (fluorescence units) | resting calcium signal, replicate 2 (fluorescence units) | activity call |
| --- | --- | --- | --- | --- | --- | --- |
| Rab19 | DRSC11260 | 2.05e7 | 3.72e7 | 1.05e7 | 1.67e7 | inactive |
| CG5194 | DRSC10492 | 4.22e7 | 2.84e7 | 2.90e7 | 1.33e7 | inactive |
| CG13978 | DRSC14720 | 3.81e7 | 5.43e7 | 1.97e7 | 2.30e7 | inactive |
| CG11596 | DRSC18540 | 3.30e7 | 3.77e7 | 1.50e7 | 1.85e7 | inactive |
| CG8526 | DRSC16438 | 3.21e7 | 2.95e7 | 1.65e7 | 1.47e7 | inactive |
| Phax | DRSC07066 | 5.02e7 | 4.59e7 | 2.25e7 | 1.91e7 | inactive |
| Clp | DRSC00746 | 2.40e7 | 2.93e7 | 1.23e7 | 1.45e7 | inactive |
| Akh | DRSC08138 | 3.58e7 | 3.76e7 | 1.90e7 | 1.76e7 | inactive |
| CG30096 | DRSC21744 | 3.90e7 | 4.26e7 | 2.09e7 | 1.82e7 | inactive |
| ergic53 | DRSC11389 | 3.21e7 | 4.59e7 | 1.60e7 | 1.86e7 | inactive |
| Mst36Fa | DRSC21564 | 3.34e7 | 3.97e7 | 2.09e7 | 1.75e7 | inactive |
| CG31735 | DRSC01518 | 2.94e7 | 4.38e7 | 1.68e7 | 2.14e7 | inactive |
| gb | DRSC15961 | 4.44e7 | 4.99e7 | 1.98e7 | 2.32e7 | inactive |
| CG7781 | DRSC03068 | 4.02e7 | 6.75e7 | 1.91e7 | 2.95e7 | inactive |
| CG32720 | DRSC17529 | 3.89e7 | 3.14e7 | 1.92e7 | 1.50e7 | inactive |
| Zir | DRSC00307 | 4.07e7 | – | 1.87e7 | – | inactive |
| CG30278 | DRSC22787 | 5.30e7 | 3.44e7 | 2.36e7 | 1.45e7 | inactive |
| CG8173 | DRSC20088 | 3.12e7 | 3.05e7 | 1.55e7 | 1.39e7 | inactive |
| CG34425 | DRSC12210 | 3.10e7 | 6.05e7 | 1.51e7 | 2.49e7 | inactive |
| CG34425 | DRSC22315 | 4.01e7 | 5.67e7 | 1.87e7 | 2.45e7 | inactive |
| fabp + sea | DRSC16114 | 2.27e7 | 2.97e7 | 1.09e7 | 1.43e7 | inactive |
| fabp + sea | DRSC16115 | 2.30e7 | 2.90e7 | 9.79e6 | 1.36e7 | inactive |
| CG10185 | DRSC14205 | 3.33e7 | 5.01e7 | 1.70e7 | 6.15e7 | inactive |
| GramD1B | DRSC00426 | 2.57e7 | 2.94e7 | 1.34e7 | 1.41e7 | inactive |
| GramD1B | DRSC00591 | 4.68e7 | – | 2.44e7 | – | inactive |
| bma | DRSC09896 | 2.76e7 | 4.19e7 | 1.44e7 | 1.73e7 | inactive |
| bma | DRSC10164 | 2.91e7 | 4.34e7 | 1.58e7 | 2.07e7 | inactive |
| nSyb | DRSC08727 | 4.42e7 | 4.14e7 | 1.92e7 | 1.90e7 | inactive |
| nSyb | DRSC22961 | 3.12e7 | 3.40e7 | 1.52e7 | 1.45e7 | inactive |
| CRIF | DRSC11811 | 3.06e7 | 4.46e7 | 1.37e7 | 1.79e7 | inactive |
| CG13312 | DRSC09983 | 3.23e7 | 5.14e7 | 1.55e7 | 2.20e7 | inactive |
| CG3270 | DRSC04988 | 4.25e7 | – | 1.94e7 | – | inactive |
| Ih | DRSC05477 | 5.13e7 | 4.81e7 | 2.50e7 | 2.12e7 | inactive |
| Ih | DRSC07445 | 4.10e7 | 4.69e7 | 1.75e7 | 2.12e7 | inactive |
| Ih | DRSC22956 | 2.42e7 | 2.32e7 | 1.32e7 | 1.07e7 | inactive |
| CG31431 | DRSC14589 | 3.75e7 | 4.12e7 | 5.58e7 | 1.85e7 | inactive |
| CG31823 | DRSC01887 | 4.92e7 | 4.03e7 | 2.05e7 | 1.72e7 | inactive |
| aPKC | DRSC05515 | 3.04e7 | 4.61e7 | 1.42e7 | 1.90e7 | inactive |
| aPKC | DRSC07639 | 3.48e7 | 4.03e7 | 1.79e7 | 1.79e7 | inactive |
| CG2444 | DRSC19846 | 3.70e7 | 4.08e7 | 1.95e7 | 1.89e7 | inactive |
| BEAF-32 + CG42254 (retired record) | DRSC05503 | 2.81e7 | 2.92e7 | 1.24e7 | 1.28e7 | inactive |
| CG5731 | DRSC02883 | 5.28e7 | 4.36e7 | 2.05e7 | 1.93e7 | inactive |
| CG15219 | DRSC03715 | 6.74e7 | 4.91e7 | 2.99e7 | 1.86e7 | inactive |
| CG17816 | DRSC15277 | 5.05e7 | 3.48e7 | 2.11e7 | 1.71e7 | inactive |
| CR12842 | DRSC06188 | 3.85e7 | 4.21e7 | 1.76e7 | 1.82e7 | inactive |
| Stt3B | DRSC16781 | 3.80e7 | 6.69e7 | 2.05e7 | 2.65e7 | inactive |
| CG9426 | DRSC03219 | 3.74e7 | 2.86e7 | 1.91e7 | 1.39e7 | inactive |
| Hmr | DRSC17740 | 3.42e7 | 4.51e7 | 1.64e7 | 2.28e7 | inactive |
| CG40439 | DRSC22707 | 3.98e7 | 3.95e7 | 1.99e7 | 1.87e7 | inactive |
| l(2)SH0834 | DRSC02854 | 2.77e7 | 3.54e7 | 1.37e7 | 1.63e7 | inactive |
| CG9281 | DRSC20179 | 3.95e7 | 4.15e7 | 1.82e7 | 1.83e7 | inactive |
| CG18428 | DRSC15326 | 4.96e7 | 4.64e7 | 2.52e7 | 1.88e7 | inactive |
| CG32462 + asRNA:CR43426 | DRSC11851 | 2.64e7 | 3.95e7 | 1.30e7 | 2.65e7 | inactive |
| Oda | DRSC07626 | 2.67e7 | 2.67e7 | 1.37e7 | 1.31e7 | inactive |
| Shal | DRSC09625 | 3.83e7 | 4.10e7 | 1.97e7 | 1.91e7 | inactive |
| Shal | DRSC11283 | 2.92e7 | 5.63e7 | 1.42e7 | 2.24e7 | inactive |
| DNaseII | DRSC16310 | 4.17e7 | 3.44e7 | 1.93e7 | 1.54e7 | inactive |
| Vps13D | DRSC09818 | 2.08e7 | 3.28e7 | 1.14e7 | 1.46e7 | inactive |
| Vps13D | DRSC09819 | 2.72e7 | 3.22e7 | 1.40e7 | 1.60e7 | inactive |
